# The other results are listed elsewhere or left out.
# Tests used:
# Assay in all cases: glycan array binding signal (z-score within array); higher = stronger binding
# Conditions in all cases: glycan notation: IUPAC condensed, linker removed
# [1] = target: Neu5Ac(a2-6)Gal(b1-4)GlcNAc(b1-3)Gal(b1-4)GlcNAc(b1-3)Gal(b1-4)GlcNAc(b1-2)Man(a1-3)[Neu5Ac(a2-6)Gal(b1-4)GlcNAc(b1-3)Gal(b1-4)GlcNAc(b1-3)Gal(b1-4)GlcNAc(b1-2)Man(a1-6)]GalNAc
# Method in brief: (§1)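 The Consortium for Functional Glycomics database supplied 3228 glycan arrays, of which those lacking an available protein sequence were dropped. The binding signal, a within-array Z-score, was averaged across arrays of the same protein sequence and across linkers. Negative scores can be read as non-binding.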
# [2] = target: Neu5Ac(a2-6)Gal(b1-4)GlcNAc(b1-3)Gal(b1-4)GlcNAc(b1-3)GalNAc
# Method in brief: as §1
# [3] = target: Neu5Ac(a2-6)Gal(b1-4)GlcNAc(b1-3)Gal(b1-4)GlcNAc(b1-3)[Neu5Ac(a2-6)Gal(b1-4)GlcNAc(b1-3)Gal(b1-4)GlcNAc(b1-6)]GalNAc
# Method in brief: as §1
# [4] = target: Neu5Ac(a2-6)Gal(b1-4)GlcNAc(b1-3)Gal(b1-4)GlcNAc(b1-6)[Gal(b1-3)]GalNAc
# Method in brief: as §1
# [5] = target: Neu5Ac(a2-6)Gal(b1-4)GlcNAc(b1-3)Gal(b1-4)[Fuc(a1-3)]GlcNAc(b1-3)Gal(b1-4)[Fuc(a1-3)]GlcNAc
# Method in brief: as §1
# [6] = target: Neu5Ac(a2-6)Gal(b1-4)GlcNAc(b1-3)GalNAc
# Method in brief: as §1
# [7] = target: Neu5Ac(a2-6)Gal(b1-4)GlcNAc(b1-3)[Neu5Ac(a2-6)Gal(b1-4)GlcNAc(b1-6)]GalNAc
# Method in brief: as §1
# [8] = target: Neu5Ac(a2-6)Gal(b1-4)GlcNAc(b1-6)GalNAc
# Method in brief: as §1
# [9] = target: Neu5Ac(a2-6)Gal(b1-4)GlcNAc(b1-6)[Gal(b1-3)GlcNAc(b1-3)]Gal(b1-4)Glc
# Method in brief: as §1
# [10] = target: Neu5Ac(a2-6)Gal(b1-4)GlcNAc(b1-6)[Gal(b1-3)]GalNAc
# Method in brief: as §1
# [11] = target: Neu5Ac(a2-6)Gal(b1-4)GlcNAc6S
# Method in brief: as §1
# Neu5Ac(a2-6)GalNAc = target: Neu5Ac(a2-6)GalNAc
# Method in brief: as §1
# [12] = target: Neu5Ac(a2-6)GalNAc(b1-4)GlcNAc
# Method in brief: as §1
# [13] = target: Neu5Ac(a2-6)GalNAc(b1-4)GlcNAc6S
# Method in brief: as §1
# [14] = target: Neu5Ac(a2-6)GlcNAc(b1-4)GlcNAc
# Method in brief: as §1
# [15] = target: Neu5Ac(a2-6)GlcNAc(b1-4)GlcNAc(b1-4)GlcNAc
# Method in brief: as §1
# Neu5Ac(a2-8)Neu5Ac = target: Neu5Ac(a2-8)Neu5Ac
# Method in brief: as §1
# [16] = target: Neu5Ac(a2-8)Neu5Ac(a2-3)Gal(b1-3)GalNAc(b1-4)[Neu5Ac(a2-3)]Gal(b1-4)Glc
# Method in brief: as §1
# [17] = target: Neu5Ac(a2-8)Neu5Ac(a2-3)Gal(b1-3)GalNAc(b1-4)[Neu5Ac(a2-8)Neu5Ac(a2-3)]Gal(b1-4)Glc
# Method in brief: as §1
# [18] = target: Neu5Ac(a2-8)Neu5Ac(a2-3)Gal(b1-4)Glc
# Method in brief: as §1
# [19] = target: Neu5Ac(a2-8)Neu5Ac(a2-3)Gal(b1-4)GlcNAc
# Method in brief: as §1
# [20] = target: Neu5Ac(a2-8)Neu5Ac(a2-3)[Gal(b1-3)GalNAc(b1-4)]Gal(b1-4)Glc
# Method in brief: as §1
# [21] = target: Neu5Ac(a2-8)Neu5Ac(a2-3)[GalNAc(b1-4)]Gal(b1-4)Glc
# Method in brief: as §1
# [22] = target: Neu5Ac(a2-8)Neu5Ac(a2-8)Neu5Ac
# Method in brief: as §1
# [23] = target: Neu5Ac(a2-8)Neu5Ac(a2-8)Neu5Ac(a2-3)Gal(b1-4)Glc
# Method in brief: as §1
# [24] = target: Neu5Ac(a2-8)Neu5Ac(a2-8)Neu5Ac(a2-3)[Gal(b1-3)GalNAc(b1-4)]Gal(b1-4)Glc
# Method in brief: as §1
# [25] = target: Neu5Ac(a2-8)Neu5Ac(a2-8)Neu5Ac(a2-3)[GalNAc(b1-4)]Gal(b1-4)Glc
# Method in brief: as §1
# [26] = target: Neu5Ac(a2-8)Neu5Ac(a2-8)Neu5Ac(a2-8)Neu5Ac(a2-3)[GalNAc(b1-4)]Gal(b1-4)Glc
# Method in brief: as §1
# [27] = target: Neu5Ac(a2-8)Neu5Gc(a2-3)Gal(b1-4)GlcNAc
# Method in brief: as §1
# [28] = target: Neu5Ac(b2-6)Gal(b1-4)GlcNAc
# Method in brief: as §1
# Neu5Ac(b2-6)GalNAc = target: Neu5Ac(b2-6)GalNAc
# Method in brief: as §1
# [29] = target: Neu5Ac9Ac(a2-3)Gal(b1-3)GlcNAc
# Method in brief: as §1
# [30] = target: Neu5Ac9Ac(a2-3)Gal(b1-4)GlcNAc
# Method in brief: as §1
# [31] = target: Neu5Ac9Ac(a2-6)Gal(b1-4)GlcNAc
# Method in brief: as §1
# [32] = target: Neu5Gc(a2-3)Gal(b1-3)GlcNAc
# Method in brief: as §1
# [33] = target: Neu5Gc(a2-3)Gal(b1-3)[Fuc(a1-4)]GlcNAc
# Method in brief: as §1
# Neu5Gc(a2-3)Gal(b1-4)Glc = target: Neu5Gc(a2-3)Gal(b1-4)Glc
# Method in brief: as §1
# [34] = target: Neu5Gc(a2-3)Gal(b1-4)GlcNAc
# Method in brief: as §1
# [35] = target: Neu5Gc(a2-3)Gal(b1-4)GlcNAc(b1-3)Gal(b1-4)GlcNAc(b1-2)Man(a1-3)[Neu5Gc(a2-3)Gal(b1-4)GlcNAc(b1-3)Gal(b1-4)GlcNAc(b1-2)Man(a1-6)]Man(b1-4)GlcNAc(b1-4)GlcNAc
# Method in brief: as §1
# [36] = target: Neu5Gc(a2-3)Gal(b1-4)[Fuc(a1-3)]GlcNAc
# Method in brief: as §1
# [37] = target: Neu5Gc(a2-6)Gal(b1-4)GlcNAc
# Method in brief: as §1
# Neu5Gc(a2-6)GalNAc = target: Neu5Gc(a2-6)GalNAc
# Method in brief: as §1
# [38] = target: Neu5Gc(a2-8)Neu5Ac(a2-3)Gal(b1-4)GlcNAc
# Method in brief: as §1
# [39] = target: Neu5Gc(a2-8)Neu5Gc(a2-3)Gal(b1-4)GlcNAc
# Method in brief: as §1
# [40] = target: Neu5Gc(a2-8)Neu5Gc(a2-3)Gal(b1-4)GlcNAc(b1-3)Gal(b1-4)GlcNAc
# Method in brief: as §1
# [41] = target: Neu5Gc(a2-8)Neu5Gc(a2-6)Gal(b1-4)GlcNAc
# Method in brief: as §1
# [42] = target: Neu5Gc(b2-6)Gal(b1-4)GlcNAc
# Method in brief: as §1
binder,measurement,setting,value
"FGF1 (Homo sapiens), P05230 (protein) MAEGEITTFTALTEKFNLPPGNYKKPKLLYSNGGHFLRILPDGTVDGTRDRSDQHIQLQLSAESVGEVYIKSTETGQYLAMTDGLLYGSQTPNEECLFLERLEENHYNTYISKHAEKNWFVGLKKNGSCKRGPRTHYGQAILFLPLPASSED",glycan array binding signal (z-score),[1],1.92
same,glycan array binding signal (z-score),[2],-0.825
same,glycan array binding signal (z-score),[3],1.56
same,glycan array binding signal (z-score),[4],-0.81
same,glycan array binding signal (z-score),[5],0.127
same,glycan array binding signal (z-score),[6],1.32
same,glycan array binding signal (z-score),[7],-0.709
same,glycan array binding signal (z-score),[8],4.24
same,glycan array binding signal (z-score),[9],-0.583
same,glycan array binding signal (z-score),[10],-0.644
same,glycan array binding signal (z-score),[11],0.441
same,glycan array binding signal (z-score),Neu5Ac(a2-6)GalNAc,-0.658
same,glycan array binding signal (z-score),[12],-0.944
same,glycan array binding signal (z-score),[13],-0.597
same,glycan array binding signal (z-score),[14],-0.312
same,glycan array binding signal (z-score),[15],-0.474
same,glycan array binding signal (z-score),Neu5Ac(a2-8)Neu5Ac,-0.154
same,glycan array binding signal (z-score),[16],-0.453
same,glycan array binding signal (z-score),[17],1.18
same,glycan array binding signal (z-score),[18],-0.768
same,glycan array binding signal (z-score),[19],-0.695
same,glycan array binding signal (z-score),[20],-0.524
same,glycan array binding signal (z-score),[21],-0.838
same,glycan array binding signal (z-score),[22],-0.501
same,glycan array binding signal (z-score),[23],1.57
same,glycan array binding signal (z-score),[24],0.41
same,glycan array binding signal (z-score),[25],-0.452
same,glycan array binding signal (z-score),[26],-0.636
same,glycan array binding signal (z-score),[27],-0.833
same,glycan array binding signal (z-score),[28],-0.874
same,glycan array binding signal (z-score),Neu5Ac(b2-6)GalNAc,-0.985
same,glycan array binding signal (z-score),[29],1.47
same,glycan array binding signal (z-score),[30],-0.689
same,glycan array binding signal (z-score),[31],-0.641
same,glycan array binding signal (z-score),[32],-0.141
same,glycan array binding signal (z-score),[33],1.13
same,glycan array binding signal (z-score),Neu5Gc(a2-3)Gal(b1-4)Glc,-0.215
same,glycan array binding signal (z-score),[34],0.029
same,glycan array binding signal (z-score),[35],0.622
same,glycan array binding signal (z-score),[36],0.18
same,glycan array binding signal (z-score),[37],0.431
same,glycan array binding signal (z-score),Neu5Gc(a2-6)GalNAc,1.07
same,glycan array binding signal (z-score),[38],-0.861
same,glycan array binding signal (z-score),[39],-0.778
same,glycan array binding signal (z-score),[40],-0.879
same,glycan array binding signal (z-score),[41],-0.059
same,glycan array binding signal (z-score),[42],0.513

# Pulled one by one from above:
binder,measurement,setting,value
"FGF1 (Homo sapiens), P05230 (protein) MAEGEITTFTALTEKFNLPPGNYKKPKLLYSNGGHFLRILPDGTVDGTRDRSDQHIQLQLSAESVGEVYIKSTETGQYLAMTDGLLYGSQTPNEECLFLERLEENHYNTYISKHAEKNWFVGLKKNGSCKRGPRTHYGQAILFLPLPASSED",glycan array binding signal (z-score),[13],-0.597
same,glycan array binding signal (z-score),[37],0.431
